# From the supplement of paper PMC8728848
# This is one part of the list.
# B1: Epf (Streptococcus pyogenes) (protein)
# chain: GDHGPEFNGVMVVKAAEAEELPDDLMNFKGTWEVSADGSSGRFFSKGATDSYVFHLIPAKDVKKPGWREHNEVKDSYIKIDKQSIAARYKTSTTAPYSVAFKVNTKSLIKDHDYKITFEQGQIASGITVDYRIGSAFNKTTDDSFKISDESKYASNVKIEGEEQGFKQREQGDKTISFRTLKEGPMSLVLLSKVEKKPQGDLDVEFKNLKIIDVTNPSQLDKGVAYVGNKNVQLTLKSDDGRTNFEGDEISLFNSRGELLQTVTVTKDQQNPISITLSEDQAKSLKNKEKLKVSIKQKQSKKTSKDFFFEVGIDPKVEAKQKEKLLELDKVKKQIEDSINGDAWLPEKPVDLQGDHGLSAWSHPQFEK
# Assays:
# Assay in all cases: glycan array binding signal (z-score within array); higher = stronger binding
# Settings in all cases: glycan notation: IUPAC condensed, linker removed
# [1] = biological target: Man(a1-2)Man(a1-3)[Man(a1-2)Man(a1-6)]Man(a1-6)[Man(a1-2)Man(a1-2)Man(a1-3)]Man(b1-4)GlcNAc(b1-4)GlcNAc
# Procedure, shortened: (§1)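 The binding signal is a Z-score computed within each array and averaged over linkers. Arrays of the same protein sequence at different concentrations or buffers were also averaged together. Data originate from 3228 arrays in the Consortium for Functional Glycomics database, kept only where the protein sequence was available.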
# [2] = biological target: Man(a1-2)Man(a1-3)[Man(a1-6)]Man(a1-6)[Man(a1-2)Man(a1-3)]Man(b1-4)GlcNAc(b1-4)GlcNAc
# Procedure, shortened: as §1
# [3] = biological target: Man(a1-2)Man(a1-6)[Man(a1-3)]Man(a1-6)[Man(a1-2)Man(a1-2)Man(a1-3)]Man
# Procedure, shortened: as §1
# [4] = biological target: Man(a1-2)Man(a1-6)[Man(a1-3)]Man(a1-6)[Man(a1-2)Man(a1-2)Man(a1-3)]Man(b1-4)GlcNAc(b1-4)GlcNAc
# Procedure, shortened: as §1
# Man(a1-3)[Man(a1-6)]Man = biological target: Man(a1-3)[Man(a1-6)]Man
# Procedure, shortened: as §1
# [5] = biological target: Man(a1-3)[Man(a1-6)]Man(a1-6)[Man(a1-2)Man(a1-3)]Man(b1-4)GlcNAc(b1-4)GlcNAc
# Procedure, shortened: as §1
# [6] = biological target: Man(a1-3)[Man(a1-6)]Man(a1-6)[Man(a1-3)]Man
# Procedure, shortened: as §1
# [7] = biological target: Man(a1-3)[Man(a1-6)]Man(a1-6)[Man(a1-3)]Man(b1-4)GlcNAc(b1-4)GlcNAc
# Procedure, shortened: as §1
# [8] = biological target: Man(a1-3)[Man(a1-6)]Man(b1-4)GlcNAc(b1-4)GlcNAc
# Procedure, shortened: as §1
# [9] = biological target: Man(a1-3)[Man(a1-6)]Man(b1-4)GlcNAc(b1-4)[Fuc(a1-6)]GlcNAc
# Procedure, shortened: as §1
# Man(a1-6)Man = biological target: Man(a1-6)Man
# Procedure, shortened: as §1
# Man(b1-4)GlcNAc = biological target: Man(b1-4)GlcNAc
# Procedure, shortened: as §1
# MurNAc(b1-4)GlcNAc = biological target: MurNAc(b1-4)GlcNAc
# Procedure, shortened: as §1
# Neu5Ac(a2-3)Gal = biological target: Neu5Ac(a2-3)Gal
# Procedure, shortened: as §1
# [10] = biological target: Neu5Ac(a2-3)Gal(b1-3)GalNAc
# Procedure, shortened: as §1
# [11] = biological target: Neu5Ac(a2-3)Gal(b1-3)GalNAc(b1-3)Gal(a1-4)Gal(b1-4)Glc
# Procedure, shortened: as §1
# [12] = biological target: Neu5Ac(a2-3)Gal(b1-3)GalNAc(b1-4)[Neu5Ac(a2-3)]Gal(b1-4)Glc
# Procedure, shortened: as §1
# [13] = biological target: Neu5Ac(a2-3)Gal(b1-3)GalNAc(b1-4)[Neu5Ac(a2-8)Neu5Ac(a2-3)]Gal(b1-4)Glc
# Procedure, shortened: as §1
# [14] = biological target: Neu5Ac(a2-3)Gal(b1-3)GalNAc6S
# Procedure, shortened: as §1
# [15] = biological target: Neu5Ac(a2-3)Gal(b1-3)GlcNAc
# Procedure, shortened: as §1
# [16] = biological target: Neu5Ac(a2-3)Gal(b1-3)GlcNAc(b1-2)Man
# Procedure, shortened: as §1
# [17] = biological target: Neu5Ac(a2-3)Gal(b1-3)GlcNAc(b1-2)Man(a1-3)[GlcNAc(b1-4)][Neu5Ac(a2-3)Gal(b1-3)GlcNAc(b1-2)Man(a1-6)]Man(b1-4)GlcNAc(b1-4)GlcNAc
# Procedure, shortened: as §1
# [18] = biological target: Neu5Ac(a2-3)Gal(b1-3)GlcNAc(b1-2)Man(a1-3)[Neu5Ac(a2-3)Gal(b1-3)GlcNAc(b1-2)Man(a1-6)]Man(b1-4)GlcNAc(b1-4)GlcNAc
# Procedure, shortened: as §1
# [19] = biological target: Neu5Ac(a2-3)Gal(b1-3)GlcNAc(b1-3)Gal(b1-3)GlcNAc
# Procedure, shortened: as §1
# [20] = biological target: Neu5Ac(a2-3)Gal(b1-3)GlcNAc(b1-3)Gal(b1-4)GlcNAc
# Procedure, shortened: as §1
# [21] = biological target: Neu5Ac(a2-3)Gal(b1-3)GlcNAc(b1-3)GalNAc
# Procedure, shortened: as §1
# [22] = biological target: Neu5Ac(a2-3)Gal(b1-3)GlcNAc(b1-4)Gal(b1-4)Glc
# Procedure, shortened: as §1
# [23] = biological target: Neu5Ac(a2-3)Gal(b1-3)GlcNAc(b1-6)GalNAc
# Procedure, shortened: as §1
# [24] = biological target: Neu5Ac(a2-3)Gal(b1-3)GlcNAc6S
# Procedure, shortened: as §1
# [25] = biological target: Neu5Ac(a2-3)Gal(b1-3)[Fuc(a1-4)]GlcNAc
# Procedure, shortened: as §1
# [26] = biological target: Neu5Ac(a2-3)Gal(b1-3)[Fuc(a1-4)]GlcNAc(b1-3)Gal(b1-3)[Fuc(a1-4)]GlcNAc
# Procedure, shortened: as §1
# [27] = biological target: Neu5Ac(a2-3)Gal(b1-3)[Fuc(a1-4)]GlcNAc(b1-3)Gal(b1-4)[Fuc(a1-3)]GlcNAc
# Procedure, shortened: as §1
# [28] = biological target: Neu5Ac(a2-3)Gal(b1-3)[GlcNAc(b1-6)]GalNAc
# Procedure, shortened: as §1
# [29] = biological target: Neu5Ac(a2-3)Gal(b1-3)[Neu5Ac(a2-6)]GalNAc
# Procedure, shortened: as §1
# [30] = biological target: Neu5Ac(a2-3)Gal(b1-3)[Neu5Ac(a2-6)]GlcNAc(b1-3)[Fuc(a1-3)[Gal(b1-4)]GlcNAc(b1-6)]Gal(b1-4)Glc
# Procedure, shortened: as §1
# [31] = biological target: Neu5Ac(a2-3)Gal(b1-3)]Neu5Ac(a2-3)Gal(b1-4)]GlcNAc
# Procedure, shortened: as §1
# Neu5Ac(a2-3)Gal(b1-4)Glc = biological target: Neu5Ac(a2-3)Gal(b1-4)Glc
# Procedure, shortened: as §1
binder,measurement,setting,value
B1,glycan array binding signal (z-score),[1],-0.363
same,glycan array binding signal (z-score),[2],-1.41
same,glycan array binding signal (z-score),[3],1.21
same,glycan array binding signal (z-score),[4],-0.19
same,glycan array binding signal (z-score),Man(a1-3)[Man(a1-6)]Man,-0.795
same,glycan array binding signal (z-score),[5],-0.626
same,glycan array binding signal (z-score),[6],-0.569
same,glycan array binding signal (z-score),[7],-1.06
same,glycan array binding signal (z-score),[8],0.659
same,glycan array binding signal (z-score),[9],-0.773
same,glycan array binding signal (z-score),Man(a1-6)Man,-0.914
same,glycan array binding signal (z-score),Man(b1-4)GlcNAc,-0.471
same,glycan array binding signal (z-score),MurNAc(b1-4)GlcNAc,1.14
same,glycan array binding signal (z-score),Neu5Ac(a2-3)Gal,-0.169
same,glycan array binding signal (z-score),[10],-1.24
same,glycan array binding signal (z-score),[11],0.129
same,glycan array binding signal (z-score),[12],0.303
same,glycan array binding signal (z-score),[13],-0.085
same,glycan array binding signal (z-score),[14],1.65
same,glycan array binding signal (z-score),[15],-0.926
same,glycan array binding signal (z-score),[16],-2.07
same,glycan array binding signal (z-score),[17],-1.33
same,glycan array binding signal (z-score),[18],-0.716
same,glycan array binding signal (z-score),[19],-0.504
same,glycan array binding signal (z-score),[20],-1.25
same,glycan array binding signal (z-score),[21],-0.671
same,glycan array binding signal (z-score),[22],-1.15
same,glycan array binding signal (z-score),[23],1.66
same,glycan array binding signal (z-score),[24],0.36
same,glycan array binding signal (z-score),[25],-1.01
same,glycan array binding signal (z-score),[26],0.998
same,glycan array binding signal (z-score),[27],0.666
same,glycan array binding signal (z-score),[28],0.505
same,glycan array binding signal (z-score),[29],-0.975
same,glycan array binding signal (z-score),[30],-0.194
same,glycan array binding signal (z-score),[31],0.647
same,glycan array binding signal (z-score),Neu5Ac(a2-3)Gal(b1-4)Glc,0.62

# 3 records picked at random from those above, as already listed:
binder,measurement,setting,value
B1,glycan array binding signal (z-score),[27],0.666
same,glycan array binding signal (z-score),[12],0.303
same,glycan array binding signal (z-score),[14],1.65
